Source: the supplement of paper PMC12823440, “Inhibitors supercharge kinase turnover through native proteolytic circuits” (Nature, 2025)
The list shows a part of the results. The calls rarely recur for the same compound in another form.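 In K562 cells expressing nanoluciferase-fused kinases, luminescence was recorded at 4 h intervals between 2 and 18 h, normalized as percent of control with DMSO at 100% and a positive control at 0%. A significant (2 sigma) signal drop marks a time point as decreased. The authors' rule for a hit is not shown and takes in more than the number of time points.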

Sequences of proteins named here, by UniProt entry; tags and fusion partners are left off. A change or cut given only in a name is not applied to a line headed by its entry.
UniProt Q6PHR2: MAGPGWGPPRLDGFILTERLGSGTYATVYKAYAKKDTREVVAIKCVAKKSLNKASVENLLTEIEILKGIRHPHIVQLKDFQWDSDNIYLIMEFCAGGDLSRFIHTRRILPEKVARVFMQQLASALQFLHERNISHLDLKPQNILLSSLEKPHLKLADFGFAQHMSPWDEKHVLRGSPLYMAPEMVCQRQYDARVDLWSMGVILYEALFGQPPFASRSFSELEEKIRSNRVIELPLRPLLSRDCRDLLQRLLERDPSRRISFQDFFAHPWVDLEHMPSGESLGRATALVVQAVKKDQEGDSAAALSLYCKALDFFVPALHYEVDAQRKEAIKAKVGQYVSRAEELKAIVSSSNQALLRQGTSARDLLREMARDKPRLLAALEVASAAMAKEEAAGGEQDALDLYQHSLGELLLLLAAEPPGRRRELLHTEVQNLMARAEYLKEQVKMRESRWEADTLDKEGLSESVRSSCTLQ

Target: ULK3 (UniProt Q6PHR2)
Assay: kinase-Nluc reporter destabilization hit call (1 = scored as downregulated) (binary); higher = compound decreases kinase abundance
Settings: K562; 2-18 h

kinase-Nluc reporter destabilization hit call, inactive:
N#Cc1ccc(-c2cnc3[nH]cc(NC(=O)c4cccnc4)c3c2)cc1 (10 µM) 0
CC1(N)CCN(c2cccnc2NC(=O)c2nc(-c3ncccc3C(F)(F)F)cnc2N)CC1 [Darovasertib] (10 µM) 0
COc1cc(N2CCC(N3CCN(C)CC3)CC2)ccc1Nc1ncc(Cl)c(-c2c[nH]c3ccccc23)n1 (2.5 µM) 0
CN1CCN(c2ccc(Nc3ncc4cc(C#N)c(=O)n(C5CCCC5)c4n3)cc2)CC1 (10 µM) 0
CO[C@H]1CC[C@H](N2C(=O)CNc3ncc(-c4ccc(C(C)(C)O)nc4)nc32)CC1 (2.5 µM) 0
Cc1c(C(=O)Nc2ccc(Oc3ccnc4[nH]cc(-c5ccccc5)c34)c(F)c2)c(=O)n(-c2ccc(F)cc2)n1C (10 µM) 0
COc1ccc(Nc2ncc(C(F)(F)F)c(NC3CC3)n2)cc1OC (10 µM) 0
C[C@@H]1O[C@@H](Oc2cc(O)c3c(=O)c(O[C@@H]4O[C@@H](C)[C@H](O)[C@@H](O)[C@H]4O)c(-c4ccc(O)cc4)oc3c2)[C@H](O)[C@H](O)[C@H]1O [Kaempferitrin] (10 µM) 0
COC(=O)Nc1ccc(-c2nc(N3CCOCC3)c3cnn(C4CCN(Cc5cccnc5)CC4)c3n2)cc1 (10 µM) 0
CC(C)Oc1ccc(F)c(-c2cnc(N)c(C(=O)Nc3cnccc3N3CCC[C@@H](C(=O)O)C3)n2)c1 (2 µM) 0
O=Nc1c(-c2c(O)[nH]c3cc(Br)ccc23)[nH]c2ccccc12 [GSK 3 Inhibitor IX] (2.5 µM) 0
